# Results as given in the supplement of paper PMC5949888.
# ± gives the standard deviation of the averaged measurements. Most values lie at the floor of the assay. Slopes are relative: functional sequences can read slightly below zero.
# Tested on: Saccharomyces cerevisiae PS128 hsf1 delta, HSF1(1-493) fusion
# Assay: growth estimate (transactivation domain function in HSF1 fusion, heat-shock survival) (a.u. (slope of normalised read count over time)); higher = stronger growth at 37°C, i.e. more transactivation activity
# Settings: library: random library
row,Substance,growth estimate
1,VPVIGPCRRLVRRGPKFYR,< -0.25
2,VPYGPQRSSDSHPVARA,< -0.25
3,VPYIQGLPTAA,< -0.25
4,VPYQPDPSRGLLTRTLCVFY,-0.205
5,VPYRSACRVWRSA,< -0.25
6,VPYSAVPSMETTAPGLAGQQ,< -0.25
7,VQA,< -0.25
8,VQAGSGSLKALVDNYPLMGG,< -0.25
9,VQARIIPSTLRTARSFGTWL,< -0.25
10,VQARIIREEARCGLVLVHPP,< -0.25
11,VQAVG,< -0.25
12,VQAYRRPIAGRTPHENRCS,< -0.25
13,VQC,< -0.25
14,VQCGFGLQKCIRHSD,< -0.25
15,VQFLL,< -0.25
16,VQGCARTTSWTELGPKSRHQ,< -0.25
17,VQGMIGATSSAIDSALHRC,< -0.25
18,VQGRFCAK,< -0.25
19,VQHVIFDML,< -0.25
20,VQLAFSEAGKSAGREFSSQA,-0.243
21,VQMRQKQGTAQFGFEPTNTR,< -0.25
22,VQMYTREQARAGSSRWSSAH,< -0.25
23,VQP,< -0.25
24,VQPHMLVTGRGMLGWVHADG,< -0.25
25,VQPHPSCAPITVGLDAVLQI,< -0.25

row,Substance,growth estimate
1,VQPYSGFNVRPSG,< -0.25
2,VQQLRNVKNTETTLFSLEKG,< -0.25
3,VQRRGARYSTLSNGGNGVAG,< -0.25
4,VQRYSRGGIHHLCPFYFKVM,< -0.25
5,VQSM,< -0.25
6,VQSVVYRATQETNPG,< -0.25
7,VQVEHGPKVGVQATLGARFT,< -0.25
8,VQVH,< -0.25
9,VQVNNGVCPVVHVPFITRFS,< -0.25
10,VQW,< -0.25
11,VRAI,< -0.25
12,VRAWSRQPKGRRQSRFARRK,< -0.25
13,VRC,< -0.25
14,VRCFDGRKGQWGLRSIGRCH,< -0.25
15,VRCMVSPGYSQSERNGFSNT,< -0.25
16,VRCRFMGGVVAWTRLRLMYH,< -0.25
17,VRCYERMGNRSTLWHMGQTR,< -0.25
18,VRDGVREAVRGIWCCIRSWI,< -0.25
19,VREGYMPGKQA,< -0.25
20,VREYCLTCTVRYNKRTLVRG,< -0.25
21,VRFESRDPPGRDTVRYSSWA,< -0.25
22,VRFKNDLWVRSLQQLDGSGA,< -0.25
23,VRFMCEFVGRELCDCDS,< -0.25
24,VRFRAL,< -0.25
25,VRGGR,< -0.25

row,Substance,growth estimate
1,VRGRTRPLTGY,< -0.25
2,VRGSLSKAERGPLTGI,< -0.25
3,VRHRSQDPVYVEAGGDGDLS,< -0.25
4,VRHV,< -0.25
5,VRI,< -0.25
6,VRIGKDMAHDDSGRTVLSFL,< -0.25
7,VRIGSSVGHVLEPVLCTGGT,< -0.25
8,VRILAPNFRVALSWRHQYFA,< -0.25
9,VRIQDCLWAAGRLKFVAYGF,-0.243
10,VRISTLSLQRSLNNAVP,< -0.25
11,VRKEWRAWTAYRVRSTGPWL,< -0.25
12,VRKIEVSRI,< -0.25
13,VRKL,< -0.25
14,VRKWYVSKDFPSVVENYFLR,< -0.25
15,VRLATWGHALKKVRTIGHMA,< -0.25
16,VRLAVPEPHTVLRVPYRELG,< -0.25
17,VRLIPGGIQAGTGRAG,< -0.25
18,VRLKATGARPNVVQVCICGG,< -0.25
19,VRLSGRHRHLCH,< -0.25
20,VRLSVHGVCPLTAIWVDLSP,< -0.25
21,VRLVFGALGKRCHNNLTRYK,< -0.25
22,VRMIPRPQSEY,< -0.25
23,VRMMTIGLTREGRSGCHIRS,< -0.25
24,VRMRTGMGKKGGRSEDSCVT,< -0.25
25,VRNKVNPVGTLLTLSEHATI,< -0.25

# Quoted from the listing:
# Value for VRMRTGMGKKGGRSEDSCVT under growth estimate: < -0.25
# Value for VQQLRNVKNTETTLFSLEKG under growth estimate: < -0.25
# Value for VQA under growth estimate: < -0.25
# Value for VRAWSRQPKGRRQSRFARRK under growth estimate: < -0.25

# Additional results:

row,Substance,growth estimate
1,VRNVIDADKIFFSLFE,-0.245
2,VRPLGAVRFYIPKPKGRGSL,< -0.25
3,VRPSLRRGQRHTRHGRVNHD,< -0.25
4,VRQQLDVNSGRVRVRSPWGR,< -0.25
5,VRQWQRTTGLGM,< -0.25
6,VRRARDTLCWSQALRLRHSR,< -0.25
7,VRRAYEGSTDLHRGKVLWGT,< -0.25
8,VRRDRRGHNERSVVELDALE,< -0.25
9,VRRGAVKFATLGLTVKDEEV,< -0.25
10,VRRGEFSR,-0.246
11,VRRSRVTLHLLNAPCNVPVR,< -0.25
12,VRRVGALEKEST,< -0.25
13,VRSHSLSYAVRQSPQCGSSA,< -0.25
14,VRSI,< -0.25
15,VRSRAQVTETRIGM,< -0.25
16,VRSRMSPVVVDHPRSALQ,< -0.25
17,VRSSHWPISTLDRALNPCMV,< -0.25
18,VRSTRRGPKFA,< -0.25
19,VRSVFYFCGHLTGIEGCWGR,< -0.25
20,VRT,< -0.25
21,VRTGGLEKAPRS,< -0.25
22,VRTLRGGKNGPIRDGNSG,< -0.25
23,VRTRCATWCCATHIDKCYSV,< -0.25
24,VRTVIGFGAWRLSH,< -0.25
25,VRVD,< -0.25

row,Substance,growth estimate
1,VRVDLLKYTYIHVVTGVT,< -0.25
2,VRVGDDCAVVPTLLRIARCQ,< -0.25
3,VRVHVAFERVSATSSATGEY,< -0.25
4,VRVIAPAIMRSLSGVTPARS,< -0.25
5,VRVLRESRRSAELVASTVGG,< -0.25
6,VRVNRQSDVGTAVNQA,< -0.25
7,VRVPAQIRVNILDA,< -0.25
8,VRVPQSFRARISRPRNTHSH,< -0.25
9,VRVT,-0.239 ± 0.015
10,VRVVTDRRVVLAWSGP,< -0.25
11,VRWIGLRPVISRPESLA,< -0.25
12,VRYADAQNTLGTRGVL,< -0.25
13,VRYL,< -0.25
14,VSAGRKILTQEVVRV,< -0.25
15,VSAVRECSLMI,< -0.25
16,VSCRKSEFAP,< -0.25
17,VSCTRIRALLGACILIRVFT,< -0.25
18,VSEMR,< -0.25
19,VSEPMLLCKGFGSNAPS,< -0.25
20,VSFETKRARRSTAQQLVFSI,< -0.25
21,VSGFFCRSSIPNACRVGRSR,< -0.25
22,VSGHSRNGNSKLNAVADMLI,< -0.25
23,VSGRFAHAEAPGSVAHP,< -0.25
24,VSGV,< -0.25
25,VSGVQSCSKFGSPRSVRSFT,< -0.25

row,Substance,growth estimate
1,VSH,< -0.253
2,VSHGHRAGTPLYEAL,< -0.25
3,VSIASAALVQYRQGYGRWVV,< -0.25
4,VSIPLNSSIPS,< -0.25
5,VSIYPQKGPYLRPHREDDKR,< -0.25
6,VSKGRSRNNLHSCRDAWTGE,< -0.25
7,VSKWMVWPPAKVWIKERAPQ,< -0.25
8,VSL,< -0.25
9,VSLIGFQVHSYQRYLITM,< -0.25
10,VSLKHRRNGSVGGRSLISSH,< -0.25
11,VSLKL,< -0.25
12,VSLRDSGLRRAYGRGAVRKG,< -0.25
13,VSLSGETLGRLTFVQYSNKC,< -0.25
14,VSMVWESVIVRGIGIICARY,< -0.25
15,VSNGWRGWTSIAKGSLSYCL,< -0.25
16,VSNTVSGRRIGPWEGLNLVC,< -0.25
17,VSPNLGVRNISTVLRDTTTN,< -0.25
18,VSPPDKWDT,< -0.25
19,VSQDAKR,< -0.25
20,VSQFLWVAGLRHATAAPARP,< -0.25
21,VSQHPYGRRSSQLLGTWCAF,< -0.25
22,VSR,< -0.25
23,VSRLTWG,< -0.25
24,VSRRFHRSG,< -0.25
25,VSRRMPGLMARRAVSSALQP,< -0.25

row,Substance,growth estimate
1,VSRSLATGQVRE,< -0.25
2,VSRWGNSKAIRAIRRGLYRI,< -0.25
3,VSSDL,< -0.25
4,VSSEAAFPSGP,< -0.25
5,VSSLVICR,< -0.25
6,VSSRGIFQTYQAADSQTVSR,< -0.25
7,VSTCSPI,< -0.25
8,VSTHYVGSWALETPFSVIIA,-0.183
9,VSTVSRVCIRLSKR,< -0.25
10,VSVDAKGGSPVLPWYLRGAH,< -0.25
11,VSVLASYSSSRSPRLGWCVP,< -0.25
12,VSWPVHGVSGR,< -0.25
13,VSWWFTYAPSFLG,< -0.25
14,VTACTRTYRQFIRLC,< -0.25
15,VTAEQTRARYGSVRVGTKGH,< -0.25
16,VTAHTTVVIS,< -0.25
17,VTCIQVRRCVLYRTGLCSDH,< -0.25
18,VTDGKLSPSTFPKRVKPIRG,< -0.25
19,VTDRFNC,< -0.25
20,VTDSRLGSRVALAYRDVCAG,< -0.25
21,VTEQSFSKERRKMS,< -0.25
22,VTERVRYRMYLPPALRYRAS,-0.231
23,VTETCDNPRMLIEQVKGLMA,< -0.25
24,VTFRNNGATLLVRFA,< -0.25
25,VTFWRAILPRKLSVDR,-0.246

row,Substance,growth estimate
1,VTGGPTRQGRSTLMTGWGLS,< -0.25
2,VTGL,< -0.25
3,VTGLGVQVSVHTYSGVVHGG,< -0.25
4,VTGMGLPVSLVGLAPSPEYV,< -0.25
5,VTGWGLRQSTDARPRQAWYN,< -0.25
6,VTGYNMC,< -0.25
7,VTLI,< -0.25
8,VTMID,-0.231
9,VTNTAACTRISCPTLFYGVN,< -0.25
10,VTPAHTLSGSGGVCNCVLSG,< -0.25
11,VTPLRILLRVSG,< -0.25
12,VTPPPPNVQRDRAGAVIMVS,< -0.25
13,VTQV,< -0.25
14,VTREEAVRLLEVLVMLSEPP,< -0.25
15,VTREMPEKCELVLLYEAIRS,< -0.25
16,VTRTNLRRQGLDATGCTAIS,< -0.25
17,VTRTVYWFWGSKQTRRPERR,< -0.25
18,VTRVSLVSSLLTGCYSIPGK,< -0.25
19,VTSTGNKVGRP,< -0.25
20,VTSTRQSHGTGRGELSLRSS,< -0.25
